In PubChem BioAssay AID330 (DTP/NCI, 2004):
The list shows only some results of the screen, not a fair sample: its compounds were picked by chemical class. Not every dose and run of a compound is shown. T/C is the treated group as % of the vehicle group. Some entries give survivors of the animals treated and no T/C: the source holds a T/C of zero for them, seemingly a mark for toxic or unscored doses. Some survivor counts are full or nearly so, which does not show that the dose was tolerated: the source hardly ever lists a survival T/C far under the control, and the zero likely stands for such cases as well. Counts of survivors are from the toxicity check (mostly the fifth day) where no day follows; animals may have died later. Schedules are NCI's codes, taken here to give the interval after Q, in days (D) or hours (H), and the number of doses after X. Some entries were tested several times; the values are given in rising order. For survival time, the PubChem record calls one and a half times the control and up active, and a quarter to a half above the control has no call in these data; cut-offs in other NCI protocols can differ. Some T/C values are followed by the survivors on the day toxicity was checked, most often the fifth; without a count or a note in brackets, all were alive then. Some T/C values are marked as having no survivor count here; that says nothing about deaths at the dose.

Test system: P388 leukemia ip, CD2F1 mice, survival T/C
Assay: NCI In Vivo Anticancer Drug Screen. Data for tumor model P388 Leukemia (intraperitoneal) in CD2F1 (CDF1) mice
Settings: T/C endpoint: median survival time, higher T/C = longer survival
[1] = dose: 50.0 mg/kg/injection, schedule: Q01DX009 (ip), vehicle: Klucel (hydroxypropylcellulose) (HPC)
[2] = dose: 100.0 mg/kg/injection, schedule: Q01DX009 (ip), vehicle: Klucel (hydroxypropylcellulose) (HPC)
[3] = dose: 25.0 mg/kg/injection, schedule: Q01DX005 (ip), vehicle: saline with Tween-80
[4] = dose: 50.0 mg/kg/injection, schedule: Q01DX005 (ip), vehicle: saline with Tween-80
[5] = dose: 50.0 mg/kg/injection, schedule: Q04DX003 (ip), vehicle: Klucel (hydroxypropylcellulose) (HPC)
[6] = dose: 100.0 mg/kg/injection, schedule: Q01DX005 (ip), vehicle: saline with Tween-80
[7] = dose: 100.0 mg/kg/injection, schedule: Q04DX003 (ip), vehicle: Klucel (hydroxypropylcellulose) (HPC)
[8] = dose: 200.0 mg/kg/injection, schedule: Q01DX005 (ip), vehicle: saline with Tween-80
[9] = dose: 200.0 mg/kg/injection, schedule: Q04DX003 (ip), vehicle: Klucel (hydroxypropylcellulose) (HPC)
[10] = dose: 50.0 mg/kg/injection, schedule: Q01DX009 (ip), vehicle: saline with Tween-80
[11] = dose: 6.25 mg/kg/injection, schedule: Q01DX005 (ip), vehicle: Klucel (hydroxypropylcellulose) (HPC)
[12] = dose: 12.5 mg/kg/injection, schedule: Q01DX005 (ip), vehicle: Klucel (hydroxypropylcellulose) (HPC)

With CN1P(F)(F)(F)N(CCl)P1(F)(F)F the T/C (dose: 6.25 mg/kg/injection, schedule: Q01DX005 (ip), vehicle: saline) was 101 % of control, the T/C (dose: 12.5 mg/kg/injection, schedule: Q01DX005 (ip), vehicle: saline) was 97 % of control and the T/C (dose: 25.0 mg/kg/injection, schedule: Q01DX005 (ip), vehicle: saline) was 104 % of control. For the same compound, the survivor count (dose: 50.0 mg/kg/injection, schedule: Q01DX005 (ip), vehicle: saline) was 0 of 5, the survivor count (dose: 100.0 mg/kg/injection, schedule: Q01DX005 (ip), vehicle: saline) was 0 of 5 and the survivor count (dose: 200.0 mg/kg/injection, schedule: Q01DX005 (ip), vehicle: saline) was 0 of 5.

O=C1NC(=O)C(c2cccc(N(CCCl)CCCl)c2)N1 (stereo not given) was tested, and the T/C (dose: 6.25 mg/kg/injection, schedule: Q01DX009 (ip), vehicle: Klucel (hydroxypropylcellulose) (HPC)) was 108 % of control, the T/C (dose: 12.5 mg/kg/injection, schedule: Q01DX009 (ip), vehicle: Klucel (hydroxypropylcellulose) (HPC)) was 107 % of control and the T/C (dose: 25.0 mg/kg/injection, schedule: Q01DX009 (ip), vehicle: Klucel (hydroxypropylcellulose) (HPC)) was 104 % of control. For the same compound, the T/C [1] was 108 % of control and the T/C [2] was 97 % of control.

With O=[N+]([O-])C1C(O)C(O)C([N+](=O)[O-])C(O)C1O (stereo not given) the T/C (dose: 3.12 mg/kg/injection, schedule: Q01DX005 (ip), vehicle: saline with Tween-80) was 96 and 97 % of control, the T/C (dose: 6.25 mg/kg/injection, schedule: Q01DX005 (ip), vehicle: saline with Tween-80) was 97 and 98 % of control and the T/C (dose: 12.5 mg/kg/injection, schedule: Q01DX005 (ip), vehicle: saline with Tween-80) was 98 and 99 % of control. The T/C [3] was 97 and 99 % of control, the T/C (dose: 25.0 mg/kg/injection, schedule: Q04DX003 (ip), vehicle: Klucel (hydroxypropylcellulose) (HPC)) was 100 % of control [5 of 6 alive] and the T/C [4] was 101 % of control [4 of 5 alive]. The T/C [5] was 94 % of control, the T/C [6] was 114 % of control and the T/C [7] was 88 and 97 % of control [4 of 6 alive]. The survivor count [8] was 5 of 5, the survivor count [9] was 5 of 6 and the survivor count (dose: 400.0 mg/kg/injection, schedule: Q04DX003 (ip), vehicle: Klucel (hydroxypropylcellulose) (HPC)) was 1 of 6.

With CCO/C=C/P(=O)(NC(=O)NC1OC(COC(=O)c2ccccc2)C(OC(=O)c2ccccc2)C1OC(=O)c1ccccc1)NC(=O)OCc1ccccc1 (stereo not given) the T/C [3] was 100 % of control, the T/C [4] was 103 % of control and the T/C [6] was 94 % of control.

With CCSC1c2ccccc2C(SCC)N(C#N)C1Br (stereo not given) the T/C (dose: 50.0 mg/kg/injection, schedule: Q01DX005 (ip), vehicle: distilled water + Tween-80 + alcohol) was 109 % of control, the T/C (dose: 100.0 mg/kg/injection, schedule: Q01DX005 (ip), vehicle: distilled water + Tween-80 + alcohol) was 106 % of control and the T/C (dose: 200.0 mg/kg/injection, schedule: Q01DX005 (ip), vehicle: distilled water + Tween-80 + alcohol) was 105 % of control.

For O=[N+]([O-])c1ccc2c(Cl)n([N+](=O)[O-])nc2c1, the T/C (dose: 12.5 mg/kg/injection, schedule: Q01DX009 (ip), vehicle: saline with Tween-80) was 100 % of control, the T/C (dose: 25.0 mg/kg/injection, schedule: Q01DX009 (ip), vehicle: saline with Tween-80) was 98 % of control and the T/C [10] was 98 % of control.

In the case of O=[N+]([O-])NCC(NN[N+](=O)[O-])N[N+](=O)[O-] (stereo not given), the T/C (dose: 6.25 mg/kg/injection, schedule: Q04DX002 (ip), vehicle: saline with Tween-80) is reported as 115 % of control [survivor count not shown] and the T/C (dose: 12.5 mg/kg/injection, schedule: Q04DX002 (ip), vehicle: saline with Tween-80) is reported as 91 % of control [survivor count not shown].

In the case of [N-]=[N+]=NC1(N=[N+]=[N-])C(=O)NC(=O)NC1=O, the T/C (dose: 3.12 mg/kg/injection, schedule: Q01DX005 (ip), vehicle: Klucel (hydroxypropylcellulose) (HPC)) is reported as 107 % of control [5 of 6 alive], the T/C [11] is reported as 101 % of control and the T/C [12] is reported as 112 % of control. For the same compound, the survivor count (dose: 50.0 mg/kg/injection, schedule: Q01DX005 (ip), vehicle: Klucel (hydroxypropylcellulose) (HPC)) was 1 of 6, the survivor count (dose: 100.0 mg/kg/injection, schedule: Q01DX005 (ip), vehicle: Klucel (hydroxypropylcellulose) (HPC)) was 0 of 6 and the survivor count (dose: 200.0 mg/kg/injection, schedule: Q01DX005 (ip), vehicle: Klucel (hydroxypropylcellulose) (HPC)) was 0 of 6.

In the case of Nc1cc([As]=O)ccc1O (stereo not given), the T/C (dose: 12.5 mg/kg/injection, schedule: Q01DX009 (ip), vehicle: saline) is reported as 126 % of control, the T/C (dose: 14.7 mg/kg/injection, schedule: Q01DX009 (ip), vehicle: Klucel (hydroxypropylcellulose) (HPC)) is reported as 106 % of control and the T/C (dose: 14.8 mg/kg/injection, schedule: Q01DX009 (ip), vehicle: saline) is reported as 136 % of control. The T/C (dose: 22.0 mg/kg/injection, schedule: Q01DX009 (ip), vehicle: Klucel (hydroxypropylcellulose) (HPC)) was 116 % of control, the T/C (dose: 22.0 mg/kg/injection, schedule: Q01DX009 (ip), vehicle: saline) was 145 % of control and the T/C (dose: 25.0 mg/kg/injection, schedule: Q01DX009 (ip), vehicle: saline) was 141 % of control. For the same compound, the T/C (dose: 33.0 mg/kg/injection, schedule: Q01DX009 (ip), vehicle: Klucel (hydroxypropylcellulose) (HPC)) was 119 % of control, the T/C (dose: 33.0 mg/kg/injection, schedule: Q01DX009 (ip), vehicle: saline) was 148 % of control and the T/C [1] was 132 % of control. The T/C (dose: 50.0 mg/kg/injection, schedule: Q01DX009 (ip), vehicle: saline) was 93 [5 of 6 alive] and 150 % of control [8 of 10 alive], the survivor count (dose: 75.0 mg/kg/injection, schedule: Q01DX009 (ip), vehicle: Klucel (hydroxypropylcellulose) (HPC)) was 0 of 6 and the survivor count (dose: 75.0 mg/kg/injection, schedule: Q01DX009 (ip), vehicle: saline) was 0 of 10 and 0 of 6.

For Cn1c(=O)ccc2ccc(N(CCO)CCCl)nc21, the T/C [11] was 101 % of control, the T/C [12] was 103 % of control [5 of 6 alive] and the T/C (dose: 25.0 mg/kg/injection, schedule: Q01DX005 (ip), vehicle: Klucel (hydroxypropylcellulose) (HPC)) was 97 % of control. For the same compound, the T/C [5] was 94 % of control, the survivor count [7] was 2 of 6 and the survivor count [9] was 0 of 6.

With CC(C)OP(C)(=O)O.[Ti] the T/C [2] was 94 % of control [survivor count not shown], the T/C (dose: 200.0 mg/kg/injection, schedule: Q01DX009 (ip), vehicle: Klucel (hydroxypropylcellulose) (HPC)) was 100 % of control [survivor count not shown] and the T/C (dose: 400.0 mg/kg/injection, schedule: Q01DX009 (ip), vehicle: Klucel (hydroxypropylcellulose) (HPC)) was 93 % of control [survivor count not shown].

O=C(Nc1ccc([N+](=O)[O-])cc1)c1cc([N+](=O)[O-])cc([N+](=O)[O-])c1Cl was tested, and the T/C [4] was 90 % of control, the T/C [6] was 95 % of control and the T/C [8] was 91 % of control.

O=[N+]([O-])c1cc([N+](=O)[O-])c(-c2nc([N+](=O)[O-])c(-c3c([N+](=O)[O-])cc([N+](=O)[O-])cc3[N+](=O)[O-])s2)c([N+](=O)[O-])c1 was tested, and the T/C [10] was 115 % of control, the T/C (dose: 100.0 mg/kg/injection, schedule: Q01DX009 (ip), vehicle: saline with Tween-80) was 100 % of control and the survivor count (dose: 200.0 mg/kg/injection, schedule: Q01DX009 (ip), vehicle: saline with Tween-80) was 3 of 6.

CCCC/C=N\NC1=NC(C)(CCC2(C)N=C(N/N=C\CCCC)SP2(=O)Nc2ncccn2)P(=O)(Nc2ncccn2)S1 (stereo not given) was tested, and the T/C (dose: 60.0 mg/kg/injection, schedule: Q01DX005 (ip), vehicle: saline with Tween-80) was 109 % of control, the T/C (dose: 120.0 mg/kg/injection, schedule: Q01DX005 (ip), vehicle: saline with Tween-80) was 100 % of control and the T/C (dose: 240.0 mg/kg/injection, schedule: Q01DX005 (ip), vehicle: saline with Tween-80) was 92 % of control.
